Data from PMC3184947.
No constants are given. Whether binding was seen depends on the method and setting. In cells and extracts the contact can be indirect. Some results given as binding are weak or reduced against the parent protein; the word gives no strength. For part of these data: Tags and fused reporters may be left off the sequences shown.

T1: Cdc11-GFP (S. cerevisiae), P32458
T1 chain: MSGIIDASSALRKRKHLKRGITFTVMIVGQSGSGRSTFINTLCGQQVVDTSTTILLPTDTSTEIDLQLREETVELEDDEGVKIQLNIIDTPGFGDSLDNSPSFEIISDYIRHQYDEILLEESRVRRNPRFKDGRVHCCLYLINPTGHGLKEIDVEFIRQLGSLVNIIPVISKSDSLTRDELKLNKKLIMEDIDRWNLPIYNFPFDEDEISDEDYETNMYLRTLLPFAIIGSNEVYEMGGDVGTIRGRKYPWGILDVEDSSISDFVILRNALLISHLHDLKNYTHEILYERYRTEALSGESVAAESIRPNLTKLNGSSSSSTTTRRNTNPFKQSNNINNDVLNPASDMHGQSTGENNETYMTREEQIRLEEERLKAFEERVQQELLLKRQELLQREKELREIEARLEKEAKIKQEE

T2: Cdc11-GFP (S. cerevisiae) (UniProt P32458)
T2 sequence: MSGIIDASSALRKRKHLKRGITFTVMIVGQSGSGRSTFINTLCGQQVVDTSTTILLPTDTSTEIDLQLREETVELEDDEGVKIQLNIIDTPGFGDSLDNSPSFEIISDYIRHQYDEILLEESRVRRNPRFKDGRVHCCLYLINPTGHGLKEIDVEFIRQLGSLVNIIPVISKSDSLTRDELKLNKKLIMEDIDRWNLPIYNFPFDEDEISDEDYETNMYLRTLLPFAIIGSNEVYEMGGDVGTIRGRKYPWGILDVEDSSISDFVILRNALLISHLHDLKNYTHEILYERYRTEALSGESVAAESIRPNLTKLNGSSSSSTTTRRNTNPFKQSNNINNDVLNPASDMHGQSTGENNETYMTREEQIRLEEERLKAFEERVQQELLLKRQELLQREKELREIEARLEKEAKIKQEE

T3: Cdc10-TAP (S. cerevisiae) (UniProt P25342)
T3 sequence: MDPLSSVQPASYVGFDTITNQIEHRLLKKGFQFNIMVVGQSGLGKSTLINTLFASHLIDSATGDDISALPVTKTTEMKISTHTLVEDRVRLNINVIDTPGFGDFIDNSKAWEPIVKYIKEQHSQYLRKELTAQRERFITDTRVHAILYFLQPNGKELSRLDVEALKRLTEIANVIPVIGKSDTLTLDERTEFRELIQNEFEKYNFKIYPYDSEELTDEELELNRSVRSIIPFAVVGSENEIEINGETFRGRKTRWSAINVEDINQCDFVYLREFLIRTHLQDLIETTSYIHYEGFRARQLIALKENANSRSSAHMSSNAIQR

T4: Shs1-TAP (S. cerevisiae) (UniProt Q07657)
T4 sequence: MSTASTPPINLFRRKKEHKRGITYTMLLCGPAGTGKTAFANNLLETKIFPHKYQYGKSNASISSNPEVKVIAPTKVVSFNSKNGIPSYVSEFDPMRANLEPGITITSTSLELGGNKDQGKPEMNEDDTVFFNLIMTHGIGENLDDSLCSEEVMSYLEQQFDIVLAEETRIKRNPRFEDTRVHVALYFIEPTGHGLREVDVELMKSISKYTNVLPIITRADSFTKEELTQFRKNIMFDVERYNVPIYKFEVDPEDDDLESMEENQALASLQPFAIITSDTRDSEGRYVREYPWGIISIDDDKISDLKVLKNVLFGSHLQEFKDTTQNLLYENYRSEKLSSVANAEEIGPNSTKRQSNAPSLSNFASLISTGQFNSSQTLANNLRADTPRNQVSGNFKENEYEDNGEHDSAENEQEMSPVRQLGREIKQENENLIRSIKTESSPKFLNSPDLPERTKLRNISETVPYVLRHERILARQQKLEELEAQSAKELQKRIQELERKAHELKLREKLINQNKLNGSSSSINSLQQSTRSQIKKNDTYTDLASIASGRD

T5: Cdc11-TAP (S. cerevisiae) (UniProt P32458)
T5 sequence: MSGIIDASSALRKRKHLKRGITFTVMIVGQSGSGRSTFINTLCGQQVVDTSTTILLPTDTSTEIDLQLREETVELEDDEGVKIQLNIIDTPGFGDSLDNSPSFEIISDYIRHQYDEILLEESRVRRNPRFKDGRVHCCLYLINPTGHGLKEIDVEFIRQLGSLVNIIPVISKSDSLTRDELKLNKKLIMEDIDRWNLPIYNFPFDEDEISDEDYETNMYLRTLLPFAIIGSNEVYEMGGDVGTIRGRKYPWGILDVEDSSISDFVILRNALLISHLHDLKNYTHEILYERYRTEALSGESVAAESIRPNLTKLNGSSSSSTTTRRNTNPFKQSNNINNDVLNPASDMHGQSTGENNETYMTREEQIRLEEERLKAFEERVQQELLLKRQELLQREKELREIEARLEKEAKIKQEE


Experiments:
[1] = target: T1, Cdc11-GFP (S. cerevisiae), P32458; assay: co-IP; GFP-trap magnetic beads added to 10 mg of yeast whole cell lysate, bait a GFP-tagged septin; eluates on SDS-PAGE, silver stain and Western blot (anti-acetyl lysine, anti-HA, anti-actin, anti-GFP); wild type ESA1 or esa1-L254P background, cells at 25°C or 37°C; conditions: remark: other sources report otherwise
[2] = target: T2, Cdc11-GFP (S. cerevisiae); assay: as above
[3] = target: T3, Cdc10-TAP (S. cerevisiae); assay: co-IP; single step purification of TAP-tagged septins (Cdc10-TAP, Cdc11-TAP, Shs1-TAP) on IgG magnetic beads from 40 mg yeast whole cell extract, 300 mM sodium acetate, 4°C; in vitro NuA4 KAT assay on the beads, SDS-PAGE, Coomassie staining and fluorography
Shs1-TAP (S. cerevisiae) = target: T4, Shs1-TAP (S. cerevisiae); assay: as above
[4] = target: T5, Cdc11-TAP (S. cerevisiae); assay: as above

Binder | binding [1] | binding [2] | also measured
Shs1, Q07657 1-551 (protein) MSTASTPPINLFRRKKEHKRGITYTMLLCGPAGTGKTAFANNLLETKIFPHKYQYGKSNASISSNPEVKVIAPTKVVSFNSKNGIPSYVSEFDPMRANLEPGITITSTSLELGGNKDQGKPEMNEDDTVFFNLIMTHGIGENLDDSLCSEEVMSYLEQQFDIVLAEETRIKRNPRFEDTRVHVALYFIEPTGHGLREVDVELMKSISKYTNVLPIITRADSFTKEELTQFRKNIMFDVERYNVPIYKFEVDPEDDDLESMEENQALASLQPFAIITSDTRDSEGRYVREYPWGIISIDDDKISDLKVLKNVLFGSHLQEFKDTTQNLLYENYRSEKLSSVANAEEIGPNSTKRQSNAPSLSNFASLISTGQFNSSQTLANNLRADTPRNQVSGNFKENEYEDNGEHDSAENEQEMSPVRQLGREIKQENENLIRSIKTESSPKFLNSPDLPERTKLRNISETVPYVLRHERILARQQKLEELEAQSAKELQKRIQELERKAHELKLREKLINQNKLNGSSSSINSLQQSTRSQIKKNDTYTDLASIASGRD | binds | – | –
Shs1-HA3 fusion protein, Q07657 1-551 (protein) MSTASTPPINLFRRKKEHKRGITYTMLLCGPAGTGKTAFANNLLETKIFPHKYQYGKSNASISSNPEVKVIAPTKVVSFNSKNGIPSYVSEFDPMRANLEPGITITSTSLELGGNKDQGKPEMNEDDTVFFNLIMTHGIGENLDDSLCSEEVMSYLEQQFDIVLAEETRIKRNPRFEDTRVHVALYFIEPTGHGLREVDVELMKSISKYTNVLPIITRADSFTKEELTQFRKNIMFDVERYNVPIYKFEVDPEDDDLESMEENQALASLQPFAIITSDTRDSEGRYVREYPWGIISIDDDKISDLKVLKNVLFGSHLQEFKDTTQNLLYENYRSEKLSSVANAEEIGPNSTKRQSNAPSLSNFASLISTGQFNSSQTLANNLRADTPRNQVSGNFKENEYEDNGEHDSAENEQEMSPVRQLGREIKQENENLIRSIKTESSPKFLNSPDLPERTKLRNISETVPYVLRHERILARQQKLEELEAQSAKELQKRIQELERKAHELKLREKLINQNKLNGSSSSINSLQQSTRSQIKKNDTYTDLASIASGRD | binds | – | –
Shs1 9R mutant (protein, UniProt Q07657 1-551) MSTASTPPINLFRRKKEHKRGITYTMLLCGPAGTGKTAFANNLLETKIFPHKYQYGKSNASISSNPEVKVIAPTKVVSFNSKNGIPSYVSEFDPMRANLEPGITITSTSLELGGNKDQGKPEMNEDDTVFFNLIMTHGIGENLDDSLCSEEVMSYLEQQFDIVLAEETRIKRNPRFEDTRVHVALYFIEPTGHGLREVDVELMKSISKYTNVLPIITRADSFTKEELTQFRKNIMFDVERYNVPIYKFEVDPEDDDLESMEENQALASLQPFAIITSDTRDSEGRYVREYPWGIISIDDDKISDLKVLKNVLFGSHLQEFKDTTQNLLYENYRSEKLSSVANAEEIGPNSTKRQSNAPSLSNFASLISTGQFNSSQTLANNLRADTPRNQVSGNFKENEYEDNGEHDSAENEQEMSPVRQLGREIKQENENLIRSIKTESSPKFLNSPDLPERTKLRNISETVPYVLRHERILARQQRLEELEAQSARELQRRIQELERRAHELRLRERLINQNRLNGSSSSINSLQQSTRSQIRRNDTYTDLASIASGRD | – | binds | –
Cdc10, P25342 1-322 (protein) MDPLSSVQPASYVGFDTITNQIEHRLLKKGFQFNIMVVGQSGLGKSTLINTLFASHLIDSATGDDISALPVTKTTEMKISTHTLVEDRVRLNINVIDTPGFGDFIDNSKAWEPIVKYIKEQHSQYLRKELTAQRERFITDTRVHAILYFLQPNGKELSRLDVEALKRLTEIANVIPVIGKSDTLTLDERTEFRELIQNEFEKYNFKIYPYDSEELTDEELELNRSVRSIIPFAVVGSENEIEINGETFRGRKTRWSAINVEDINQCDFVYLREFLIRTHLQDLIETTSYIHYEGFRARQLIALKENANSRSSAHMSSNAIQR | binds | – | –
Cdc12 (protein, UniProt P32468 1-407) MSAATATAAPVPPPVGISNLPNQRYKIVNEEGGTFTVMLCGESGLGKTTFINTLFQTVLKRADGQQHRQEPIRKTVEIDITRALLEEKHFELRVNVIDTPGFGDNVNNNKAWQPLVDFIDDQHDSYMRQEQQPYRTKKFDLRVHAVLYFIRPTGHGLKPIDIETMKRLSTRANLIPVIAKADTLTAQELQQFKSRIRQVIEAQEIRIFTPPLDADSKEDAKSGSNPDSAAVEHARQLIEAMPFAIVGSEKKFDNGQGTQVVARKYPWGLVEIENDSHCDFRKLRALLLRTYLLDLISTTQEMHYETYRRLRLEGHENTGEGNEDFTLPAIAPARKLSHNPRYKEEENALKKYFTDQVKAEEQRFRQWEQNIVNERIRLNGDLEEIQGKVKKLEEQVKSLQVKKSHLK | – | – | binding [3]: binds; binding (Shs1-TAP (S. cerevisiae)): binds
Cdc3 (protein, UniProt P32457 1-520) MSLKEEQVSIKQDPEQEERQHDQFNDVQIKQESQDHDGVDSQYTNGTQNDDSERFEAAESDVKVEPGLGMGITSSQSEKGQVLPDQPEIKFIRRQINGYVGFANLPKQWHRRSIKNGFSFNLLCVGPDGIGKTTLMKTLFNNDDIEANLVKDYEEELANDQEEEEGQGEGHENQSQEQRHKVKIKSYESVIEENGVKLNLNVIDTEGFGDFLNNDQKSWDPIIKEIDSRFDQYLDAENKINRHSINDKRIHACLYFIEPTGHYLKPLDLKFMQSVYEKCNLIPVIAKSDILTDEEILSFKKTIMNQLIQSNIELFKPPIYSNDDAENSHLSERLFSSLPYAVIGSNDIVENYSGNQVRGRSYPWGVIEVDNDNHSDFNLLKNLLIKQFMEELKERTSKILYENYRSSKLAKLGIKQDNSVFKEFDPISKQQEEKTLHEAKLAKLEIEMKTVFQQKVSEKEKKLQKSETELFARHKEMKEKLTKQLKALEDKKKQLELSINSASPNVNHSPVPTKKKGFLR | – | binds | binding [3]: binds; binding [4]: binds; binding (Shs1-TAP (S. cerevisiae)): binds

Second part, led by results:

binding [1] | binding [2] | Binder | also measured
– | binds | Shs1 8R mutant (protein, UniProt Q07657 1-551) MSTASTPPINLFRRKKEHKRGITYTMLLCGPAGTGKTAFANNLLETKIFPHKYQYGKSNASISSNPEVKVIAPTKVVSFNSKNGIPSYVSEFDPMRANLEPGITITSTSLELGGNKDQGKPEMNEDDTVFFNLIMTHGIGENLDDSLCSEEVMSYLEQQFDIVLAEETRIKRNPRFEDTRVHVALYFIEPTGHGLREVDVELMKSISKYTNVLPIITRADSFTKEELTQFRKNIMFDVERYNVPIYKFEVDPEDDDLESMEENQALASLQPFAIITSDTRDSEGRYVREYPWGIISIDDDKISDLKVLKNVLFGSHLQEFKDTTQNLLYENYRSEKLSSVANAEEIGPNSTKRQSNAPSLSNFASLISTGQFNSSQTLANNLRADTPRNQVSGNFKENEYEDNGEHDSAENEQEMSPVRQLGREIKQENENLIRSIKTESSPKFLNSPDLPERTKLRNISETVPYVLRHERILARQQKLEELEAQSARELQRRIQELERRAHELRLRERLINQNRLNGSSSSINSLQQSTRSQIRRNDTYTDLASIASGRD | –
– | binds | shs1-66Δ (domain or fragment, UniProt Q07657 1-485) MSTASTPPINLFRRKKEHKRGITYTMLLCGPAGTGKTAFANNLLETKIFPHKYQYGKSNASISSNPEVKVIAPTKVVSFNSKNGIPSYVSEFDPMRANLEPGITITSTSLELGGNKDQGKPEMNEDDTVFFNLIMTHGIGENLDDSLCSEEVMSYLEQQFDIVLAEETRIKRNPRFEDTRVHVALYFIEPTGHGLREVDVELMKSISKYTNVLPIITRADSFTKEELTQFRKNIMFDVERYNVPIYKFEVDPEDDDLESMEENQALASLQPFAIITSDTRDSEGRYVREYPWGIISIDDDKISDLKVLKNVLFGSHLQEFKDTTQNLLYENYRSEKLSSVANAEEIGPNSTKRQSNAPSLSNFASLISTGQFNSSQTLANNLRADTPRNQVSGNFKENEYEDNGEHDSAENEQEMSPVRQLGREIKQENENLIRSIKTESSPKFLNSPDLPERTKLRNISETVPYVLRHERILARQQKLEELEAQ | –
